{"source": "patent EP4685142A1", "about": "“TRIAZINE COMPOUND AND USE THEREOF” (Chengdu Zenitar Biomedical Technology Co., Ltd., priority 2023, dated 2024)", "test": "In vivo brain-to-plasma ratio in mice", "key": {"[1]": {"details": "male, mouse, brain/plasma, po, 10 mg/kg"}}}
{"smiles": "Cc1c(N[C@@H]2CCCC[C@H]2O)nnc(-c2ccc(C(F)(F)F)cc2O)c1C", "note": "[Ref-1, reference compound]", "values": [{"measurement": "Brain", "setting": "1 h, male mice, oral 10 mg/kg", "result": 56, "unit": "ng/g"}, {"measurement": "Kp at 1 h", "setting": "[1]", "result": 0.02}, {"measurement": "Kp at 6 h", "setting": "[1]", "result": 0.06}, {"measurement": "concentration at 1 h", "setting": "male, mouse, plasma, po, 10 mg/kg", "result": 2330, "unit": "ng/mL"}]}
